Measured values taken from the supplement of paper PMC10060354, “Discovery of a small molecule ligand of FRS2 that inhibits invasion and tumor growth” (Cellular Oncology, 2022).

Protein sequences, listed by entry. Tags and fused reporters are not part of them. Lines headed by an entry give the natural chain unless they say otherwise; changes in a name come on top.
UniProt P20155: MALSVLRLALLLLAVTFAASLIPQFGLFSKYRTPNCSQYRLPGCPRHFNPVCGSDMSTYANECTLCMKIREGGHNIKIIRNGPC
UniProt Q5VZL5: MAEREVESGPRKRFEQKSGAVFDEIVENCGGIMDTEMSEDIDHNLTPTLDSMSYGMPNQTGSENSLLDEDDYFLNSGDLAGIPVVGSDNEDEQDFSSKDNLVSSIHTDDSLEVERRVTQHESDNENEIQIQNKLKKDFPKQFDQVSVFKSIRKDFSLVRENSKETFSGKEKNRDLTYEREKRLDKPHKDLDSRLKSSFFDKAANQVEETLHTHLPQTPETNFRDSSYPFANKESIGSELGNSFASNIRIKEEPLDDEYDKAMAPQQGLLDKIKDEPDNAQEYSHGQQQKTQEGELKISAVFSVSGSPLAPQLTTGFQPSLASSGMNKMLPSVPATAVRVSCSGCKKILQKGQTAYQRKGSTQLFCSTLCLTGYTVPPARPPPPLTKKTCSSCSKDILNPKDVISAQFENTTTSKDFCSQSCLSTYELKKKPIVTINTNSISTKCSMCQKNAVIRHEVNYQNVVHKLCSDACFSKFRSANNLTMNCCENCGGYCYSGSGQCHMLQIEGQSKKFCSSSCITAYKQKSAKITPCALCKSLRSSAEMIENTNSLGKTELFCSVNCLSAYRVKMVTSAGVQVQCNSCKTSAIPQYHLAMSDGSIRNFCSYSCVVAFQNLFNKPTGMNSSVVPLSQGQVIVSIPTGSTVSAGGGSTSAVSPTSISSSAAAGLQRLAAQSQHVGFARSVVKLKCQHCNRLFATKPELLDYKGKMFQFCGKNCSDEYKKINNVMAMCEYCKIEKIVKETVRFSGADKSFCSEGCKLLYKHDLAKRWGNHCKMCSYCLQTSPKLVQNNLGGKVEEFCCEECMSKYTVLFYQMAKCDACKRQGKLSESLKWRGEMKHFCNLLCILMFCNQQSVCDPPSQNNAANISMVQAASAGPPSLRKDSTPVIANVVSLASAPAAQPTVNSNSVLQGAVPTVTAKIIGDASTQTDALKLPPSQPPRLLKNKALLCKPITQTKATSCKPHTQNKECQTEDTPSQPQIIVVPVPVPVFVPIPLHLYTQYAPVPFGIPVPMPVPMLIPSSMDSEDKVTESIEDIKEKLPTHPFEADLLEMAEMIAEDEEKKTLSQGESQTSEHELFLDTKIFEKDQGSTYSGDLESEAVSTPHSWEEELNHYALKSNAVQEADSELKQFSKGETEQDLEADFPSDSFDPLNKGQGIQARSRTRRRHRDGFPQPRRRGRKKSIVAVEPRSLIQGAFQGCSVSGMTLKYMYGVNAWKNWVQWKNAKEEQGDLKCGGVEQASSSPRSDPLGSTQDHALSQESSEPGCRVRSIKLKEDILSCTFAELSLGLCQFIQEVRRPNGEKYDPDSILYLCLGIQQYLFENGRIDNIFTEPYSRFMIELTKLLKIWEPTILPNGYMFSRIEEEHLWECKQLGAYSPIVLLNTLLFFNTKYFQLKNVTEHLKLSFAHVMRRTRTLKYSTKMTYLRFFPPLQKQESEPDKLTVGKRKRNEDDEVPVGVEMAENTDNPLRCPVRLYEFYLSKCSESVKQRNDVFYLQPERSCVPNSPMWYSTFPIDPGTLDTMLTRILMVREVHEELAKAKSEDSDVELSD
UniProt Q5EBL4: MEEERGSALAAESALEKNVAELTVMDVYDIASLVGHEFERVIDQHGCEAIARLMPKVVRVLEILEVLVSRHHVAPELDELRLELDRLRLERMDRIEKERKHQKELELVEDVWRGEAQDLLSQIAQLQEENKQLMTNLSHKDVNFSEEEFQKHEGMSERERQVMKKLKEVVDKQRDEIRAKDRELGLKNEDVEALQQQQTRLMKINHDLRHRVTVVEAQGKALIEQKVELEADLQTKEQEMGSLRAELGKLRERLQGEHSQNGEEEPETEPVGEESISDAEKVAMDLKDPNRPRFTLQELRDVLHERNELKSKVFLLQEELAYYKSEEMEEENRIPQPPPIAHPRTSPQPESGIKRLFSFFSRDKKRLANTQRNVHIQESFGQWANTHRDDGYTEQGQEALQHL
UniProt O00178: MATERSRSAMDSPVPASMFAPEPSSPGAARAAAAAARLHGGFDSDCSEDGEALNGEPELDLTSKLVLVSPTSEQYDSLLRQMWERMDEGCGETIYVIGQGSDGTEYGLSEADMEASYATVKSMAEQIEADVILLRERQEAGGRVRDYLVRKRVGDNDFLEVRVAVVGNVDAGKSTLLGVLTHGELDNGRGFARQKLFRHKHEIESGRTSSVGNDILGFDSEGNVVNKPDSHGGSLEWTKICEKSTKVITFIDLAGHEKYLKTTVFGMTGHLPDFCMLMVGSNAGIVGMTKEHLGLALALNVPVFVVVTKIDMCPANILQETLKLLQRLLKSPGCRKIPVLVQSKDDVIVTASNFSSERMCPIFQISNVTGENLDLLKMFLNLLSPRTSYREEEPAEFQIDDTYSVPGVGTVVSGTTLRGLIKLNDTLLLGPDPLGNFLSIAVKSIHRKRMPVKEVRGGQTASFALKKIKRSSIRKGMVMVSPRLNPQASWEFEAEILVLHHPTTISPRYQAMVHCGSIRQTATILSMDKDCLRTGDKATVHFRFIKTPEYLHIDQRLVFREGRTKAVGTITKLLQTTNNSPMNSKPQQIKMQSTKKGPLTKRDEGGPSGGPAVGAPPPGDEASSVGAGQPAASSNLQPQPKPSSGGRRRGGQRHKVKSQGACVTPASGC
UniProt Q9UK32, whole entry: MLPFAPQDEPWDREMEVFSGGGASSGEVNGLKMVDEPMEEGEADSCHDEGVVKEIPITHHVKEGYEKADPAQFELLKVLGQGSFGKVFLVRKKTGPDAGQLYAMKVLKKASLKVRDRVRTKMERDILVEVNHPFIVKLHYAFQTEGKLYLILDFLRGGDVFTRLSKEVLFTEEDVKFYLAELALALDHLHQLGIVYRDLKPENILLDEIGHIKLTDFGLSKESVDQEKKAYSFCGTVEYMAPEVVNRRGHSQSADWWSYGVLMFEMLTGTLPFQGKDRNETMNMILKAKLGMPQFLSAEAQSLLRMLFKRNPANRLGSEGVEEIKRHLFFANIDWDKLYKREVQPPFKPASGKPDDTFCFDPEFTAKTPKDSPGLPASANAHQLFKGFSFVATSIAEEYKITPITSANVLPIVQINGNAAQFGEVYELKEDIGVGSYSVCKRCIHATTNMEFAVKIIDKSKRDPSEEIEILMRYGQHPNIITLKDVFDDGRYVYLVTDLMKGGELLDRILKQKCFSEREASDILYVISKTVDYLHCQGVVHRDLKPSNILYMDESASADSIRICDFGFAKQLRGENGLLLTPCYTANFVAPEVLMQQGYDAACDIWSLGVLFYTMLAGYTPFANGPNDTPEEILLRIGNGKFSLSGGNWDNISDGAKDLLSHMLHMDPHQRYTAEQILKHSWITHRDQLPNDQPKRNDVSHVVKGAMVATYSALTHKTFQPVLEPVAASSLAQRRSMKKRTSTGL
UniProt Q86WX3: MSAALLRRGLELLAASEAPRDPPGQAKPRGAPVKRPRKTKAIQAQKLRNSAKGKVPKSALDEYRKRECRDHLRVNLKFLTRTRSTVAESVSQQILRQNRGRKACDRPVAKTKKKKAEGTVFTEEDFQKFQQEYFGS
UniProt P33240: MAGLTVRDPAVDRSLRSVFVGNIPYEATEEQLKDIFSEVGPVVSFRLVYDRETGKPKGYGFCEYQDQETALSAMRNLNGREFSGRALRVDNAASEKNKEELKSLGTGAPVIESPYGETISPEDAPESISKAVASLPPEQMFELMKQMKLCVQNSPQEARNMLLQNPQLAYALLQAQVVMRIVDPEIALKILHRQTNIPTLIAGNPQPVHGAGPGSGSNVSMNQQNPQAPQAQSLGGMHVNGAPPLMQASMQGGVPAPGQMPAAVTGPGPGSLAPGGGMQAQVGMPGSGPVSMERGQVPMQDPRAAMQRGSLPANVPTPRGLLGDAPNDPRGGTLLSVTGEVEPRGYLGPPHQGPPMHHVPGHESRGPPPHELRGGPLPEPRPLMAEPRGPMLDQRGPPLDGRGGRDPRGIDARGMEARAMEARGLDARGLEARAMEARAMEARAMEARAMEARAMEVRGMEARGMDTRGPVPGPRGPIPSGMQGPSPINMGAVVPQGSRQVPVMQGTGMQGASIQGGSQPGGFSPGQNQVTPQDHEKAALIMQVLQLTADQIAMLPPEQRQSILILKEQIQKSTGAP
UniProt O14657: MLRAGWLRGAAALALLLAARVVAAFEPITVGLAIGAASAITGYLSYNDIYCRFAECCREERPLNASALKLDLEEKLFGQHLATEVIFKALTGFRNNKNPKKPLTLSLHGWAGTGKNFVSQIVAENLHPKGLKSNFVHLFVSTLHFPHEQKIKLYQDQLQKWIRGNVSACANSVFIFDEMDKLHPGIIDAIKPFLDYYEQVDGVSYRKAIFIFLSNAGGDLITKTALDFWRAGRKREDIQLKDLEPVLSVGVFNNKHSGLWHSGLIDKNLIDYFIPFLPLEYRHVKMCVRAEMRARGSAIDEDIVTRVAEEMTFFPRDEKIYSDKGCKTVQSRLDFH
UniProt O60664: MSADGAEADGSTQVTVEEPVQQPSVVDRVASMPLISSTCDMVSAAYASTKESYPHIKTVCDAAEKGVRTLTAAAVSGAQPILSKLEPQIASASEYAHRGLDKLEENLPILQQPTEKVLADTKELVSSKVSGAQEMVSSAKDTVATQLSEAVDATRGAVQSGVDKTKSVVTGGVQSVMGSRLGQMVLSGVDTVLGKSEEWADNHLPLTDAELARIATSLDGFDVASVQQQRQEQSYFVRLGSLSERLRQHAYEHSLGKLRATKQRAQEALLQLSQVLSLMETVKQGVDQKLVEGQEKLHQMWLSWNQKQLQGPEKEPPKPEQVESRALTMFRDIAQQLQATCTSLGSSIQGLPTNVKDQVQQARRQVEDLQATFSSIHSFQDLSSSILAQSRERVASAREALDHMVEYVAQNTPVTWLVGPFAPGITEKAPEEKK
UniProt Q96GX2: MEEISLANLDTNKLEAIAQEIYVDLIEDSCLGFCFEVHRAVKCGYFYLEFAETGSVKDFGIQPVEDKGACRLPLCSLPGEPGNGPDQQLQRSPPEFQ
UniProt Q15014, whole entry: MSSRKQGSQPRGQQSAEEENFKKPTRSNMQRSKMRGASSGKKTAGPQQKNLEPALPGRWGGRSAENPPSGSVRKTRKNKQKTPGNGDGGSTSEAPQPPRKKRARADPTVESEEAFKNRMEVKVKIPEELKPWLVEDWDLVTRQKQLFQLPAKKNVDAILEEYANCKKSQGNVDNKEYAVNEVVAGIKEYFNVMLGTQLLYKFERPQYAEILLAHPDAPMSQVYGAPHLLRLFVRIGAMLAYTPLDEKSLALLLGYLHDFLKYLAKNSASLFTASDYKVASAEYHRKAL
UniProt Q9BRK5: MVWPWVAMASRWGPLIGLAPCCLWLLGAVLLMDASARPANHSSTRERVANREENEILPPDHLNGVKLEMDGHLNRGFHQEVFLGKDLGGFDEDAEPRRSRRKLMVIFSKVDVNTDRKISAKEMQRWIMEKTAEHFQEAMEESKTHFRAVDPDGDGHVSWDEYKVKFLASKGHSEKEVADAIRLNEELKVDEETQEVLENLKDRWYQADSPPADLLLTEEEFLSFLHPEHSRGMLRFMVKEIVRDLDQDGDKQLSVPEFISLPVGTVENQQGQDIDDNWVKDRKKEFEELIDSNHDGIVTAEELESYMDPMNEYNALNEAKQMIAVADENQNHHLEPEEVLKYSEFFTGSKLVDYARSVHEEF
UniProt Q86SZ2: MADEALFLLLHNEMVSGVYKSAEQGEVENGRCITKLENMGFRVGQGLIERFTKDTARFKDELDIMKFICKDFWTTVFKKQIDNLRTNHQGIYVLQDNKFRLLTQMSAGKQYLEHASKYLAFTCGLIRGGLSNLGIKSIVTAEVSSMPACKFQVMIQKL
UniProt O94763, whole entry: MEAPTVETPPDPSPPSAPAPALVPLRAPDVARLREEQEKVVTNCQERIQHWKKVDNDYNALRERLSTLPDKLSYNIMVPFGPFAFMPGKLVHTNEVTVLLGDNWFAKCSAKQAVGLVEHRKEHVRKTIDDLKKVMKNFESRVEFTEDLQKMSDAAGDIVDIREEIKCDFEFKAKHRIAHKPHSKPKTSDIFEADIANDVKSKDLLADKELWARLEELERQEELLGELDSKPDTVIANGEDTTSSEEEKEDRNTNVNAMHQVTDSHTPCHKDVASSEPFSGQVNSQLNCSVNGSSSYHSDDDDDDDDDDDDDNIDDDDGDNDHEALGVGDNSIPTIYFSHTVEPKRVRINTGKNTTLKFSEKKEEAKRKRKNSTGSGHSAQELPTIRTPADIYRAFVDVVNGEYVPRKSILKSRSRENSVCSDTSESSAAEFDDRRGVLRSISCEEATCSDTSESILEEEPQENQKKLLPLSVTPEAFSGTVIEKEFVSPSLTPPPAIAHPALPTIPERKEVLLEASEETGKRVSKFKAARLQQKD
UniProt O00161: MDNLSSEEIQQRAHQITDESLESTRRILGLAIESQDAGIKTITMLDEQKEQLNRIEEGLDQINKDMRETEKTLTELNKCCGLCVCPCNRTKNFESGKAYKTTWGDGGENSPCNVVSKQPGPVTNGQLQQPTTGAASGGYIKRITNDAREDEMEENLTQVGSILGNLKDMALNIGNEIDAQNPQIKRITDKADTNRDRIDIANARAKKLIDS

Compound: [O-][N+](C(C1=C(C(O)=C2)NC(C(C=C3)=CC=C3Cl)C4C1C=CC4)=C2Cl)=O
Assay: melting temperature shift (compound 7 minus DMSO); higher = compound stabilises the protein
Conditions: 10 µM
Protocol: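 Thermal proteome profiling (TMT mass spectrometry) in intact DAOY medulloblastoma cells or DAOY lysates treated with 10 µM compound 7 or DMSO, heated at 10 temperatures from 40.5 to 73.8 °C for 3 min. Melting curves were fitted with the Bioconductor TPP package, and the melting point difference between compound and vehicle is reported per protein (single curve per condition).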

[1] = system: DAOY cell lysate, treatment time: 20 min, 4 °C
[2] = system: intact DAOY cells, treatment time: 90 min, 37 °C

Row | Target | melting temperature shift [1] | melting temperature shift [2]
1 | MYO9B (UniProt Q13459) | -0.767 °C | -0.23 °C
2 | UniProt P20155 | – | -0.919 °C
3 | UniProt O15523 | – | 0.245 °C
4 | ZMYM4 (UniProt Q5VZL5) | -1.06 °C | –
5 | SP1 (UniProt P08047) | – | 1.12 °C
6 | RILPL1 (UniProt Q5EBL4) | -1.63 °C | –
7 | UniProt Q96ME7 | 0.305 °C | –
8 | CDC34 (UniProt P49427) | -0.612 °C | 0.145 °C
9 | GTPBP1 (UniProt O00178) | 0.244 °C | -1.15 °C
10 | UniProt P08123 | 0.438 °C | 0.0393 °C
11 | RCOR3 (UniProt Q9P2K3) | 0.307 °C | -1.56 °C
12 | RQCD1 (UniProt Q92600) | -0.626 °C | 0.391 °C
13 | RPS6KA6 (UniProt Q9UK32) | – | 0.105 °C
14 | DHX37 (UniProt Q8IY37) | -0.0581 °C | -2.12 °C
15 | RPS19BP1 (UniProt Q86WX3) | 1.35 °C | -1.55 °C
16 | AKIRIN2 (UniProt Q53H80) | 1.85 °C | –
17 | CSTF2 (UniProt P33240) | -0.874 °C | -2.03 °C
18 | CPNE8 (UniProt Q86YQ8) | -0.368 °C | –
19 | UniProt Q8NB78 | 0.38 °C | –
20 | FCHSD2 (UniProt O94868) | 0.607 °C | –
21 | SMARCB1 (UniProt Q12824) | -0.62 °C | 0.169 °C
22 | MTA3 (UniProt Q9BTC8) | 0.207 °C | -0.95 °C
23 | METAP2 (UniProt P50579) | -0.688 °C | 0.228 °C
24 | NEK7 (UniProt Q8TDX7) | -1.58 °C | -1.01 °C

Row | Target | melting temperature shift [1] | melting temperature shift [2]
25 | DAZAP1 (UniProt Q96EP5) | 0.436 °C | 0.482 °C
26 | PXDN (UniProt Q92626) | 0.809 °C | 0.896 °C
27 | UniProt Q9H6R7 | -0.612 °C | –
28 | PGM2L1 (UniProt Q6PCE3) | -0.728 °C | 0.706 °C
29 | UniProt O00221 | 1.24 °C | –
30 | PDCL3 (UniProt Q9H2J4) | -1.14 °C | 0.152 °C
31 | TOR1B (UniProt O14657) | 0.537 °C | –
32 | PLIN3 (UniProt O60664) | -3.34 °C | –
33 | ACTR1B (UniProt P42025) | -0.474 °C | -0.39 °C
34 | UniProt Q96GX2 | -0.677 °C | 1.29 °C
35 | TFRC (UniProt P02786) | 2.06 °C | -0.0613 °C
36 | TPX2 (UniProt Q9ULW0) | 0.948 °C | –
37 | PITPNA (UniProt Q00169) | -2.03 °C | 0.489 °C
38 | COG6 (UniProt Q9Y2V7) | -0.402 °C | -0.473 °C
39 | UniProt P09936 | -0.558 °C | 0.746 °C
40 | MORF4L2 (UniProt Q15014) | 0.51 °C | 1.37 °C
41 | SDF4 (UniProt Q9BRK5) | 1.14 °C | 1.89 °C
42 | UniProt Q6ZN28 | -0.141 °C | 0.344 °C
43 | UniProt O95639 | 0.375 °C | –
44 | TRAPPC6B (UniProt Q86SZ2) | -0.349 °C | 1.31 °C
45 | YKT6 (UniProt O15498) | -1.66 °C | 0.0855 °C
46 | UniProt P19086 | – | 2.97 °C
47 | URI1 (UniProt O94763) | 0.403 °C | -0.377 °C
48 | SNAP23 (UniProt O00161) | -0.427 °C | –

Many values rest on one well or one pass, so single values are uncertain.
